Results are given in words; binding and its absence hold for the method and conditions named. Binding seen in cells or lysates may run through a third protein. A result given as binding can be weak or reduced; the word gives no strength.

Chains of the proteins cited; added tags and fusions are not shown. Lines headed by an entry give the natural chain unless they say otherwise; changes in a name come on top.
UniProt P06756: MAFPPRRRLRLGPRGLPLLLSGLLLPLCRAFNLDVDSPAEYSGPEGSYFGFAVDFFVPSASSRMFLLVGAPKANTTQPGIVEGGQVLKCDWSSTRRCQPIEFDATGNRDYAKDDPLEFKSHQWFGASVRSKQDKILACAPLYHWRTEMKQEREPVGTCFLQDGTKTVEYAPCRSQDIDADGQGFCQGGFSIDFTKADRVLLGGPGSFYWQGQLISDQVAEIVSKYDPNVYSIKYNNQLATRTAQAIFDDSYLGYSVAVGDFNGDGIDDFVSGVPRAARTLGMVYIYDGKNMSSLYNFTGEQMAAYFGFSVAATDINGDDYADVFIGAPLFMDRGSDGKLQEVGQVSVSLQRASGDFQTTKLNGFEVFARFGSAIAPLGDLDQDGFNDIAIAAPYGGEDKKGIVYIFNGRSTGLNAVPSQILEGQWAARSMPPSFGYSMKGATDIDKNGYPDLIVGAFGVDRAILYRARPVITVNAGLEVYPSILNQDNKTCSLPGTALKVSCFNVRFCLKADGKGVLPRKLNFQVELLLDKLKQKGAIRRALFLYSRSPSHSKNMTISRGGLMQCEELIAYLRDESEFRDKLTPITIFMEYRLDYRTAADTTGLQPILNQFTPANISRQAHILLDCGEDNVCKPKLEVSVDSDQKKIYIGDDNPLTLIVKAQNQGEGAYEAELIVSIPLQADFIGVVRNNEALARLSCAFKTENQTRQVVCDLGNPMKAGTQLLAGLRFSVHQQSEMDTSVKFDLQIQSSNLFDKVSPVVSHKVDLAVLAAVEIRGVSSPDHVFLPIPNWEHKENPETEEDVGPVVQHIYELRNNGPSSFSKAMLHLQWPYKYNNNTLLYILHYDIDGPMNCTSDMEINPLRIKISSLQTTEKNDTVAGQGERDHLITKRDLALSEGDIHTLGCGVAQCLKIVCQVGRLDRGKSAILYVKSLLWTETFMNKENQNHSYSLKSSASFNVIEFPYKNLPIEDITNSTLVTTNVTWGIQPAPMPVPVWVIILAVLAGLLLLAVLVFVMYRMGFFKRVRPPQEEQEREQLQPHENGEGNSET
UniProt P43121: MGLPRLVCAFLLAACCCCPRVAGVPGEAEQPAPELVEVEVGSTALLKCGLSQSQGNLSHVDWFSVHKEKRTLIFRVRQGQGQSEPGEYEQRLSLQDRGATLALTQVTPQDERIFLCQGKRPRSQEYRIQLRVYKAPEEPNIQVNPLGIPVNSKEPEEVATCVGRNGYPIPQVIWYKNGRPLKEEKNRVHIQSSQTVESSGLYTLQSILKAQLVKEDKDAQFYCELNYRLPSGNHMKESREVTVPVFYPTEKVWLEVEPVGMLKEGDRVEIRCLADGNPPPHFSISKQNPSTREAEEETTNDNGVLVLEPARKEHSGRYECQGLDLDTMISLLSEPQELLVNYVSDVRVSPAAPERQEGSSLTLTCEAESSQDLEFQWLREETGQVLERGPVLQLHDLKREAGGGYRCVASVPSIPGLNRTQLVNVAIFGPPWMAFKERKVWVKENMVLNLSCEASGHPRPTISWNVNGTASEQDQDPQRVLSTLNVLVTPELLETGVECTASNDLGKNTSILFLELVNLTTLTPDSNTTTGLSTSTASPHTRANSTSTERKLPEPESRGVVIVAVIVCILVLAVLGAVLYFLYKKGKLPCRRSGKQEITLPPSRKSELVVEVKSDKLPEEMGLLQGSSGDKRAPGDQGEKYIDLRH

The target of this test is integrin αvβ3 expressed in CHO cells (UniProt P06756). The experiment in a line: co-IP; mock or αvβ3 expressing CHO cells, treated or not with blocking anti-αvβ3 antibody, sCD146 added for 1 h at 37°; immunoprecipitation with anti-αvβ3 antibody, blot for CD146; only the binder purified.

“recombinant soluble CD146 (from UniProt P43121) (ligand)”: the binding entry is reported as “binds”.

The values are drawn from PMC9590138.
